Experimental data reported in the supplement of paper PMC6411743.
± gives the standard deviation of the averaged measurements. The list shows a part of the results, in another mix than the full data.

Amino acid sequences for entries named in this document (tags omitted). A change or cut given only in a name is not applied to a line headed by its entry.
UniProt O14646: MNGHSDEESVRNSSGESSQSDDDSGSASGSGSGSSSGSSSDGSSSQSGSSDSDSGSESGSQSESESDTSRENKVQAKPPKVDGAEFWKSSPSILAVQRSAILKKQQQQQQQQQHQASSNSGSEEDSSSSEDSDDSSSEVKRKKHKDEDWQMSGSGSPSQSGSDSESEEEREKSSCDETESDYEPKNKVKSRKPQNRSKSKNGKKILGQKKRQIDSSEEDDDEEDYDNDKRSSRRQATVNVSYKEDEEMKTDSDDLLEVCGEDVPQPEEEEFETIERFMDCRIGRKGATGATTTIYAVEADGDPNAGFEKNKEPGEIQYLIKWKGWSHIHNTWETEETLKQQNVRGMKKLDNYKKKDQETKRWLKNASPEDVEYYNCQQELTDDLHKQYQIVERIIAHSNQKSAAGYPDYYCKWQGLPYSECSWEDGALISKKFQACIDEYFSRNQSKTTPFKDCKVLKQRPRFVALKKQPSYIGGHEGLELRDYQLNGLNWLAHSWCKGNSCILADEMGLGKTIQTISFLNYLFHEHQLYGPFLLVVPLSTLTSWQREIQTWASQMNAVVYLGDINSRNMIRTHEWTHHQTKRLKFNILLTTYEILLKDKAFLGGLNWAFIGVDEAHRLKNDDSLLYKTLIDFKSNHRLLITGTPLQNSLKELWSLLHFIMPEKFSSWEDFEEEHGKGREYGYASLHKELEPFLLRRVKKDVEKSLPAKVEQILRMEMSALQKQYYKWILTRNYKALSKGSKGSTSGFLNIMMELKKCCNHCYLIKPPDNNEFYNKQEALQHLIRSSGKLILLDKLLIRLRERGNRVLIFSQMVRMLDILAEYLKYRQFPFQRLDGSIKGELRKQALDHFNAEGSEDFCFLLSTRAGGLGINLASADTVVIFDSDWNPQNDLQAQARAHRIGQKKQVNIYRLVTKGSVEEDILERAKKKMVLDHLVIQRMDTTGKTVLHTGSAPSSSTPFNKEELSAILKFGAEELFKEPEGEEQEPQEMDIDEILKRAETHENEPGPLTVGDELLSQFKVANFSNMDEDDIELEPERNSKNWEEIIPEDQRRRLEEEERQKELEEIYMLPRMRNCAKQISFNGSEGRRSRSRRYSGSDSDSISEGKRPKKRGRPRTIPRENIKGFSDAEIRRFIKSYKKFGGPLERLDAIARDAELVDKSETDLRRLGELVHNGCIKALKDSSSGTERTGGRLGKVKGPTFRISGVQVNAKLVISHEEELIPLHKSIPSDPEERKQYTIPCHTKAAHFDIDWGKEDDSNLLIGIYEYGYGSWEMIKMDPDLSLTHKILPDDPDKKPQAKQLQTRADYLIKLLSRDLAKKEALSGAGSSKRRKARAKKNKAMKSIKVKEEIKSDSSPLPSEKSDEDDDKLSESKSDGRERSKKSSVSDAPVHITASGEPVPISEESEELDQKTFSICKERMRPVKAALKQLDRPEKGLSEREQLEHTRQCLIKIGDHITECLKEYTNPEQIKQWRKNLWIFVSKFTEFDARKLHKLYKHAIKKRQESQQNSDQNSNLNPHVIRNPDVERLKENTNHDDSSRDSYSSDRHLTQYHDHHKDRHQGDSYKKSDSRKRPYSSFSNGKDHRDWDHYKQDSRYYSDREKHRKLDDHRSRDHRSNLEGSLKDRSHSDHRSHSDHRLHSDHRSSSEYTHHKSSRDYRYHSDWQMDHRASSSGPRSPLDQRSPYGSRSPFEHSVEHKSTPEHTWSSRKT
UniProt P09211: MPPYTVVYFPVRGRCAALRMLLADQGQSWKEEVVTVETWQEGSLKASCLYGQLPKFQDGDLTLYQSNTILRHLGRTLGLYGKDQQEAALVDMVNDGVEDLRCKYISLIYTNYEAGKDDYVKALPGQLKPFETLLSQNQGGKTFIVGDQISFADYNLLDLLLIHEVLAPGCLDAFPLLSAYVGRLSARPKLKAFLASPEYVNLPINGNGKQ
UniProt Q5T8I9: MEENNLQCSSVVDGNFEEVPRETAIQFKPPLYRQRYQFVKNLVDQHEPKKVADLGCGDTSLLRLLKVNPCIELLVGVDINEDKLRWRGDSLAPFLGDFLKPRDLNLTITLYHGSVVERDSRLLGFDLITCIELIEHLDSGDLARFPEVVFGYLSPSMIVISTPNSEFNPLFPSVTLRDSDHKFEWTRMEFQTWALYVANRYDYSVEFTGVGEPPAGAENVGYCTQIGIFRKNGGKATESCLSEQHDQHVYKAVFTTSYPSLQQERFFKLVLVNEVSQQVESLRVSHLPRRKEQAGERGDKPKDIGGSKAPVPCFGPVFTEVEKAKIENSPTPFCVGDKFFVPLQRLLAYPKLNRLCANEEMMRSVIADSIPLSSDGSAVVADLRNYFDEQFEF
UniProt P57105: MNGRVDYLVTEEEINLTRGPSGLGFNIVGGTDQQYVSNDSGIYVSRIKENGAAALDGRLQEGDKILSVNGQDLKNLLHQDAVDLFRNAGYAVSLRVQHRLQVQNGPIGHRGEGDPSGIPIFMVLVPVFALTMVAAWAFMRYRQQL
UniProt Q9Y388: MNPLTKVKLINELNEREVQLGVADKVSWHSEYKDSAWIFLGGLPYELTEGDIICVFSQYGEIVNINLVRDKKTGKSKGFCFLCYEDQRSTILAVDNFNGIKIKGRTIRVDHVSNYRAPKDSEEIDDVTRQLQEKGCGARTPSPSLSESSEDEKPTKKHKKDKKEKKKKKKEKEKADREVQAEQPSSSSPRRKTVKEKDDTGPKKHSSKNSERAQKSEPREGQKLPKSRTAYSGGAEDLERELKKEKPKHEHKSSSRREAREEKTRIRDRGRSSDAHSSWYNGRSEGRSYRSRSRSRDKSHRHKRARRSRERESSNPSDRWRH
UniProt Q9NP79: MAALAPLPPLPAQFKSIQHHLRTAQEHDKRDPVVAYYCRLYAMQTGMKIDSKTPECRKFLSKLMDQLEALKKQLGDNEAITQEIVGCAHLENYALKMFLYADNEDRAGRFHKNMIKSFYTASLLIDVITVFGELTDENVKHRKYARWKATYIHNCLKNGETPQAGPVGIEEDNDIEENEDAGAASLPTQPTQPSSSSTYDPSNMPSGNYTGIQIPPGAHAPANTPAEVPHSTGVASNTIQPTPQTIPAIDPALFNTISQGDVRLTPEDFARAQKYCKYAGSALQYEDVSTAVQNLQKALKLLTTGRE
UniProt Q8WXX7: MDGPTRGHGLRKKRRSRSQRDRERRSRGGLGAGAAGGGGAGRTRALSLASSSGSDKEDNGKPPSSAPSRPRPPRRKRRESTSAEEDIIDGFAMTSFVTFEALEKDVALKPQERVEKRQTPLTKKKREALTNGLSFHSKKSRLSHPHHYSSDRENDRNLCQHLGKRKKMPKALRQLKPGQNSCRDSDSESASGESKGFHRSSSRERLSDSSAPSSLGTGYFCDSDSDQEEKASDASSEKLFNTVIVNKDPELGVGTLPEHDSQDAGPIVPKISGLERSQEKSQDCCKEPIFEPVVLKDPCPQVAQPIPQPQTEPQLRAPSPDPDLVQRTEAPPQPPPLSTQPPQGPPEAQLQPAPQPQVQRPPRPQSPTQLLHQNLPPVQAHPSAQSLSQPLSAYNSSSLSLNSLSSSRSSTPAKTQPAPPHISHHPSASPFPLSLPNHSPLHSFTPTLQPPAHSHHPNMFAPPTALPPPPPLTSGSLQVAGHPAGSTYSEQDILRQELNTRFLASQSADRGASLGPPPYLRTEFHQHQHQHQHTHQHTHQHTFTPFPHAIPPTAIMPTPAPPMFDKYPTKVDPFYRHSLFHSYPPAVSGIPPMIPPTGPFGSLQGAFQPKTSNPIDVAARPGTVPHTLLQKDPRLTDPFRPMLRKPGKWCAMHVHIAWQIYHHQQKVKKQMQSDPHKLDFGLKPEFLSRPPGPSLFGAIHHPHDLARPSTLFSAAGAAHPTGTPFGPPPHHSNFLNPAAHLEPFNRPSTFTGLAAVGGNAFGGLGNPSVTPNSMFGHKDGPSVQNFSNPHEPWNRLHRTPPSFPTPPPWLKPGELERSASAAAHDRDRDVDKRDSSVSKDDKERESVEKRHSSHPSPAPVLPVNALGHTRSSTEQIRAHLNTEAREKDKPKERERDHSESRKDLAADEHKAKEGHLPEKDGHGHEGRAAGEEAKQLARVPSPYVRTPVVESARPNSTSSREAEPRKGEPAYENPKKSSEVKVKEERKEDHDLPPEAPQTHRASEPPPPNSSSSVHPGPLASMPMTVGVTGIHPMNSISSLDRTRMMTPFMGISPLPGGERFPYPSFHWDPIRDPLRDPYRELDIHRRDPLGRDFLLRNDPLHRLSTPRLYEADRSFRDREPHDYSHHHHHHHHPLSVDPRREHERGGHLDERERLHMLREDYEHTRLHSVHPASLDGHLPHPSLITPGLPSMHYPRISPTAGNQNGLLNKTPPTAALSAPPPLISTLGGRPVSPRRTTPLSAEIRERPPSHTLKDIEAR
UniProt Q15345: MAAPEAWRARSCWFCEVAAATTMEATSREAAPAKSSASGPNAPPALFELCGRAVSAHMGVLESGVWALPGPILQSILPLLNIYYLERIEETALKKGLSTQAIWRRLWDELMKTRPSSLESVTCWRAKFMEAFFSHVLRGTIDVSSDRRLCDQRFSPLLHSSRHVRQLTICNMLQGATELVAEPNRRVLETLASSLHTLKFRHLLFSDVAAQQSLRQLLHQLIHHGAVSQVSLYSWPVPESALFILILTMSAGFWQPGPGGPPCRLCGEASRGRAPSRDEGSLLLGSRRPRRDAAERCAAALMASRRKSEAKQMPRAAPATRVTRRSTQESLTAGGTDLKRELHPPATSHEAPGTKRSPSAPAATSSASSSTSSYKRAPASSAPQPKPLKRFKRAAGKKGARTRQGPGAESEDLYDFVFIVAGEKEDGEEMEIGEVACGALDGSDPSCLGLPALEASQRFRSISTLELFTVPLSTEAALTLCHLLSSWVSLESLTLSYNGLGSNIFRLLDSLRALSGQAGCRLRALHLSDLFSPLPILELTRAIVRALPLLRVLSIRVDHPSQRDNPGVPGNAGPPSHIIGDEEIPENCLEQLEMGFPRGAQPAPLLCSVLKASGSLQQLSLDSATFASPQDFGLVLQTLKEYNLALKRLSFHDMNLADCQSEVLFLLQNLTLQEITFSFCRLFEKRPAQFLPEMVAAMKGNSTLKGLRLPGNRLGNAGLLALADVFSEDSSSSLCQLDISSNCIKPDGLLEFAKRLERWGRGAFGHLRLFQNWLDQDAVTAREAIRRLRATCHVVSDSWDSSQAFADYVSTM
UniProt Q7Z6P3: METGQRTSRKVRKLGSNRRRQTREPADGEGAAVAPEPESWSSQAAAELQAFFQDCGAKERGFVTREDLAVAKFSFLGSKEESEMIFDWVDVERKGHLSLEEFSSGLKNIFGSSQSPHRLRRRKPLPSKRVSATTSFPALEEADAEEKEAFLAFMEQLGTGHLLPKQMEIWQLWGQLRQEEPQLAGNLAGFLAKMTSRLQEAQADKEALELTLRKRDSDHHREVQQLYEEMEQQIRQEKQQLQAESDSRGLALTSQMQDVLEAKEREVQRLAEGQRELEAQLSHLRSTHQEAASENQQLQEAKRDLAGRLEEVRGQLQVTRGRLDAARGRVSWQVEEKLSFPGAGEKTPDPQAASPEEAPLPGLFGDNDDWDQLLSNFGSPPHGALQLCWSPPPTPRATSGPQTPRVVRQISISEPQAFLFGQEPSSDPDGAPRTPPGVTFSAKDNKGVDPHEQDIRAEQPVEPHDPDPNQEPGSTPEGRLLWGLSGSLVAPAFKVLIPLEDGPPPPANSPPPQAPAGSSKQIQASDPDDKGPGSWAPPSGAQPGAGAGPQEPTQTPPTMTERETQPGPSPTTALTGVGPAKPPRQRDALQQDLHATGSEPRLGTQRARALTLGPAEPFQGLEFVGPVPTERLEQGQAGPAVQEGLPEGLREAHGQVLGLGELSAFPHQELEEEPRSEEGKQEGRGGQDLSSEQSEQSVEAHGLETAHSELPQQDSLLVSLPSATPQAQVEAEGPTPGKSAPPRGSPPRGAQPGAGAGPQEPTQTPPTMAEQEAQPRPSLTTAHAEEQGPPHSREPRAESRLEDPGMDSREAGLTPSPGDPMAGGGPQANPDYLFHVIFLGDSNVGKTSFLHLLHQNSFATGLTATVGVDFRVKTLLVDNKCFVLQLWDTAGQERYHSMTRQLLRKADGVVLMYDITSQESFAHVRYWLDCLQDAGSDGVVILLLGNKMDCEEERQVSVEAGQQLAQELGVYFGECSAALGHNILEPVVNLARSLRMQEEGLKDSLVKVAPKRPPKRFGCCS
UniProt P81877: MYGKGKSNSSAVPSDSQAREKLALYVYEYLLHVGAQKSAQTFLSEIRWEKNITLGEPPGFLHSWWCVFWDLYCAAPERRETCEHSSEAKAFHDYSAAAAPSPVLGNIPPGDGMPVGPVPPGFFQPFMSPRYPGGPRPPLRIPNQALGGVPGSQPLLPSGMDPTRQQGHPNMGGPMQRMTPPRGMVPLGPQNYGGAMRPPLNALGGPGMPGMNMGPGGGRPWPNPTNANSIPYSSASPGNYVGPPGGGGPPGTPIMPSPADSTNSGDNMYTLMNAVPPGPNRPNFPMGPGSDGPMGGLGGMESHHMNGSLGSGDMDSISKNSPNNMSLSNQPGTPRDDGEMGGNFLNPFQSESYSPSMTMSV

Compound: Nc1ncnc2c1ncn2[C@@H]1O[C@H](COP(=O)(O)OP(=O)(O)OP(=O)(O)O)[C@@H](O)[C@H]1O [adenosine triphosphate]
Experiment: NP40-soluble protein abundance relative to vehicle (solubility fold change) (ratio); higher = more soluble protein in presence of ATP
Settings: concentration: 8mM
In short: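 Jurkat crude lysate (Dounce-homogenised) was treated with eight concentrations from 0.1 to 10 mM for 10 min at room temperature, then 3 min at 37 °C. It was solubilised with 0.8% NP40 and benzonase (60 min, 4 °C) and ultracentrifuged, and the supernatant was TMT-labelled for LC-MS/MS. Intensities were vsn-normalised, and the value is the fold change against the NP40-processed vehicle per replicate, from three independent experiments.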

Target	NP40-soluble protein abundance
A0A087WZ62	0.969 ± 0.06
A0A087WVF4|O14646 and related entries (UniProt O14646)	1.14 ± 0.059
A0A0B4J294|H3BP13 and related entries (UniProt Q9UL33)	0.94 ± 0.048
A0A087WY58|P51956 and related entries (UniProt P51956)	0.988 ± 0.054
A0A0A0MSA9|A0A0C4DG49|P15151 and related entries (UniProt P15151)	1.01 ± 0.044
A0A087X243|P09211 (UniProt P09211)	0.954 ± 0.053
A0A0A0MRN1|Q5T8I9 (UniProt Q5T8I9)	1.04 ± 0.1
A0A087X1I8|Q7Z3E5 and related entries (UniProt Q7Z3E5)	0.965 ± 0.049
A0A087WUM0|A0A087WYV9|A0A087X1F5 (UniProt P57105)	0.93 ± 0.013
A0A087WUI1|Q9Y388 (UniProt Q9Y388)	1.34 ± 0.11
A0A087WUH0|P28715 (UniProt P28715)	0.986 ± 0.024
A0A087WY55|Q9NP79 (UniProt Q9NP79)	0.95 ± 0.037
A0A087WVB5|Q75MD7 and related entries (UniProt Q8WXX7)	1.3 ± 0.22
A0A087WTU1|A0A087X0S7|A0A0B4J2G4|A0A0C4DH00|Q15345 and related entries (UniProt Q15345)	0.983 ± 0.035
A0A087WXI0 (UniProt Q7Z6P3)	0.936 ± 0.035
A0A087X159|P81877 and related entries (UniProt P81877)	0.936 ± 0.023
A0A087X1K6|Q9Y2Y9 (UniProt Q9Y2Y9)	0.885 ± 0.15

Exported in CSV form: entries from further up
Target,NP40-soluble protein abundance
A0A0A0MRN1|Q5T8I9 (UniProt Q5T8I9),1.04 ± 0.1
A0A087WUM0|A0A087WYV9|A0A087X1F5 (UniProt P57105),0.93 ± 0.013
A0A087WTU1|A0A087X0S7|A0A0B4J2G4|A0A0C4DH00|Q15345 and related entries (UniProt Q15345),0.983 ± 0.035
A0A087X159|P81877 and related entries (UniProt P81877),0.936 ± 0.023
